Measurements taken from the supplement of paper PMC4635364.
Structures can show the parent of a compound that is named as a salt. The list shows a part of the results. Single values are uncertain here, since repeats match poorly.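 ReNCell VM, a human fetal ventral-midbrain neural progenitor line, was differentiated without mitogens. Blinded raters scored images stained for doublecortin (early neurons) or tyrosine hydroxylase (dopaminergic neurons) against untreated wells (0 = no change). Scores were averaged across repeats and both raters, and compounds averaging 2 or more were selected as hits for retesting.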

System: ReNCell VM
Assay: neuronal differentiation score (DCX+ cell fraction vs untreated, manual image score) (score (-3 to 3)); higher = more neuronal differentiation
Details: library: LOPAC; 2 uM; 2 weeks

SMILES | neuronal differentiation score
Cn1c(=O)c2[nH]cnc2n(C)c1=O [Aminophylline ethylenediamine] | inactive: 0
Nc1ccc(CCNc2ncnc3c2ncn3C2OC(CO)C(O)C2O)cc1 (configuration not stated) [N6-2-(4-Aminophenyl)ethyladenosine] | inactive: -3
CSc1ccc2c(c1)C(N1CCN(C)CC1)Cc1ccccc1S2 (configuration not stated) [Methiothepin mesylate] | inactive: 0

Same assay, conditions: library: Prestwick; 2 uM; 2 weeks

SMILES | neuronal differentiation score
CCc1cccc(CC)c1NC(=O)CN(CC(=O)O)CC(=O)O [Etifenin] | inactive: 0
O=C(O)CCC(=O)Nc1ccc(S(=O)(=O)Nc2nccs2)cc1 [Succinylsulfathiazole] | inactive: 0
N=C(N)NS(=O)(=O)c1ccc(N)cc1 [Sulfaguanidine] | inactive: 0
CC(=O)Oc1cc(C(F)(F)F)ccc1C(=O)O [Triflusal] | inactive: 0
CC(=O)OC[C@H]1O[C@@H]([S-])[C@H](OC(C)=O)[C@@H](OC(C)=O)[C@@H]1OC(C)=O.CCP(CC)CC.[Au+] [Auranofin] | inactive: 0
CC(=O)CC(c1ccc([N+](=O)[O-])cc1)c1c(O)c2ccccc2oc1=O (configuration not stated) [Acenocoumarol] | inactive: 0
Cc1c(NC(C)C)c(=O)n(-c2ccccc2)n1C [Isopyrin hydrochloride] | inactive: 0

Same assay, conditions: library: Spectrum; 2 uM; 2 weeks

SMILES | neuronal differentiation score
CN(C)CCCN1c2ccccc2CCc2ccc(Cl)cc21 | inactive: -1
N=C(N)NC(=N)N1CCOCC1 | inactive: 0
CN(C)/N=N/c1[nH]cnc1C(N)=O | inactive: 0
CCCCC(CC)COC(=O)CC(C(=O)OCC(CC)CCCC)S(=O)(=O)O (configuration not stated) | inactive: 0
CC(C)[N+]1(C)[C@@H]2CC[C@H]1C[C@@H](OC(=O)C(CO)c1ccccc1)C2 (some centres not stated) | inactive: 0
FC(F)(Cl)C(F)(F)Cl | inactive: 0
C#CCN(C)CCCOc1ccc(Cl)cc1Cl | inactive: 0
O=C(O)CCCN1C(=O)c2cccc3cccc(c23)C1=O | inactive: -1
Clc1ccc2c(c1)CCc1cccnc1C2=C1CCNCC1 | inactive: 0
CCCCC(=O)O[C@H]1CC[C@H]2[C@@H]3CCc4cc(O)ccc4[C@H]3CC[C@]12C | inactive: 0
O=C(Nc1ccccc1)OCC(CN1CCCCC1)OC(=O)Nc1ccccc1 (configuration not stated) | inactive: 0
CC(C)CCCC(C)C1CCC2C3CCC4CC(O)CCC4(C)C3CCC12C (stereo not drawn) [5alpha-CHOLESTANOL] | inactive: 0
CCn1nc(C(=O)O)c(=O)c2cc3c(cc21)OCO3 | inactive: 0
CC(C)(C)NC[C@H](O)c1ccc(O)c(CO)c1 | inactive: 0
C1CCN2C[C@@H]3C[C@@H](CN4CCCC[C@@H]34)[C@H]2C1 | inactive: 0
CCOC(=O)c1ccc(N)cc1 | inactive: 0
Nc1ncnc(Nc2ccc(Cl)cc2)n1 | inactive: 0
CC1(C)S[C@@H]2[C@H](N3C(=O)[C@@H](c4ccccc4)NC3(C)C)C(=O)N2[C@H]1C(=O)O | inactive: 0
O=C(NCCO[N+](=O)[O-])c1cccnc1 | inactive: 0
NS(=O)(=O)c1cc2c(cc1Cl)NC(C(Cl)Cl)NS2(=O)=O (configuration not stated) | inactive: 0
COc1ccc(-c2coc3cc(O)ccc3c2=O)c(OC)c1 | inactive: 0
CC(=O)c1ccc2c(c1)N(CCCN(C)C)c1ccccc1S2 | inactive: 0

A stretch of the results above, as a working copy:
SMILES | neuronal differentiation score
N=C(N)NC(=N)N1CCOCC1 | inactive: 0
CN(C)/N=N/c1[nH]cnc1C(N)=O | inactive: 0
CCCCC(CC)COC(=O)CC(C(=O)OCC(CC)CCCC)S(=O)(=O)O (configuration not stated) | inactive: 0
